# Source: the supplement of paper PMC6411743
# Protein sequences, listed by entry. Tags and fused reporters are not part of them. Lines headed by an entry give the natural chain unless they say otherwise; changes in a name come on top.
# UniProt O43617, whole entry: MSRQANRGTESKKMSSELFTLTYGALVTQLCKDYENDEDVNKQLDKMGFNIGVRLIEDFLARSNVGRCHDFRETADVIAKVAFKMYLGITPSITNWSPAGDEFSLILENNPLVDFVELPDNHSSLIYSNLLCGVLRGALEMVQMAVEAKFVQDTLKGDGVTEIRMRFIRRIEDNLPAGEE
# UniProt O15270: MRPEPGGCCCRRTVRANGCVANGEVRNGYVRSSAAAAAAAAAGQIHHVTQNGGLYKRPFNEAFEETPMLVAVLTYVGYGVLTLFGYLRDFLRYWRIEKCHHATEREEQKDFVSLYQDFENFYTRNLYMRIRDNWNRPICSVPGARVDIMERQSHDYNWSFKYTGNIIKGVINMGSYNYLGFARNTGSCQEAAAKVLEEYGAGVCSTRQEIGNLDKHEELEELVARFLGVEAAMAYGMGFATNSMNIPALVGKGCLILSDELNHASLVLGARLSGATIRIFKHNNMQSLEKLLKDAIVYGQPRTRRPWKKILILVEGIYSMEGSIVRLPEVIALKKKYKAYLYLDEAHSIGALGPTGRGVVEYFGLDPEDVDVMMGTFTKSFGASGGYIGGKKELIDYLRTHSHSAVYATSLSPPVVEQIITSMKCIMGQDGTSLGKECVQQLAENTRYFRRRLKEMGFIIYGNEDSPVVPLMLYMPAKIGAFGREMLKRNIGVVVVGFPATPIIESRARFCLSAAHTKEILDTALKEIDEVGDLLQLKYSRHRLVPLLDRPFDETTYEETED
# UniProt L0R6Q1: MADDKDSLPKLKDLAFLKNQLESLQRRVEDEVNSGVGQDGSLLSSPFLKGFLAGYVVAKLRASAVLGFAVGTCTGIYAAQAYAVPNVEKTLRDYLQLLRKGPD
# UniProt Q6AI12: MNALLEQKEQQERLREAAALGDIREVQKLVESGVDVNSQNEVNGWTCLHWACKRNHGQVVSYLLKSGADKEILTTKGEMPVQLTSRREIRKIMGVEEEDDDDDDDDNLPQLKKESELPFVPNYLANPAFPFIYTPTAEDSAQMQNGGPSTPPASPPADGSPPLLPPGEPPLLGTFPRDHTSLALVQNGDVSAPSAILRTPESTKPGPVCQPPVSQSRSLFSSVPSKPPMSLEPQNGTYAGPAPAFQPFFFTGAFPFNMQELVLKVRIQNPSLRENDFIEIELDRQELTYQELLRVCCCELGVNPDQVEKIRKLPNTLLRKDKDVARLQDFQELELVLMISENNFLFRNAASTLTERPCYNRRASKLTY
# UniProt O60291: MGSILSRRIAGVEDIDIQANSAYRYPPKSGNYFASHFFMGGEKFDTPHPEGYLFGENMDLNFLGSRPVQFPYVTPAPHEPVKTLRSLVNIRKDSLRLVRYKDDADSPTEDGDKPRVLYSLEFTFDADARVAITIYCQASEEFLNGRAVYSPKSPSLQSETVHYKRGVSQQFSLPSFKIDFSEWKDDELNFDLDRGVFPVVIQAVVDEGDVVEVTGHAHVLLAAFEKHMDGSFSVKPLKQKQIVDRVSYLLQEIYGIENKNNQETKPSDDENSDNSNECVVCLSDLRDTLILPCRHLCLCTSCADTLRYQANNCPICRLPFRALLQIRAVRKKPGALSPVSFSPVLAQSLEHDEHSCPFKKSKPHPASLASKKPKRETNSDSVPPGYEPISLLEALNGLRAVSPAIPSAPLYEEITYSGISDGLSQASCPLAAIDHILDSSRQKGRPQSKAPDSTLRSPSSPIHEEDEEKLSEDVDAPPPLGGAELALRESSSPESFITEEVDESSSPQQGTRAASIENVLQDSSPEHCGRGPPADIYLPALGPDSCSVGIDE
# UniProt O00231, whole entry: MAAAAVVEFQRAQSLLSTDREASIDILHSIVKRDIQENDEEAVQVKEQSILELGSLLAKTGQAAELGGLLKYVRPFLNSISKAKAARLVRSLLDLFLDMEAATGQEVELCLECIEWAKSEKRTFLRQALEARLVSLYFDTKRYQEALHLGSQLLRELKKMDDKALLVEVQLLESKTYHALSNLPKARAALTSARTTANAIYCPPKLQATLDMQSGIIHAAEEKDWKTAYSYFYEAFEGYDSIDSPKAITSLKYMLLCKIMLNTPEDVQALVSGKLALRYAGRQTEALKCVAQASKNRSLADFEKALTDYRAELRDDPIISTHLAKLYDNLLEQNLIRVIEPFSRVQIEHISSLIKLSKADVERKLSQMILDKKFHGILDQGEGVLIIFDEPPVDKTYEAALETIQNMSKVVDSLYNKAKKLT
# UniProt P35269, whole entry: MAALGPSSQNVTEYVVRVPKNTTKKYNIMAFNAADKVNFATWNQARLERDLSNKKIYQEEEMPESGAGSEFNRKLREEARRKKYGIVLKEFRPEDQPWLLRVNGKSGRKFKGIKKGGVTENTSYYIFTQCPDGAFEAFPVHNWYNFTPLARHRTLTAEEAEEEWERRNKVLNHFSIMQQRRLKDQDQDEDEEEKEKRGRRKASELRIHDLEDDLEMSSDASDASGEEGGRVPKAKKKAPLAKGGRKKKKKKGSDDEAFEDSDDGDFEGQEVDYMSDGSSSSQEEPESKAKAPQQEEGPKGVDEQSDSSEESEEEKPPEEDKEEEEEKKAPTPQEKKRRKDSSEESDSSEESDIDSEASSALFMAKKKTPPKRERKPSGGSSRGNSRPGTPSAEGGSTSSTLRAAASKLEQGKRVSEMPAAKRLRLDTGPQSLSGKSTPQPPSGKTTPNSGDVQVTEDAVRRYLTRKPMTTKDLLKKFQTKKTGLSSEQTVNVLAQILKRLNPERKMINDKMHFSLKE
# UniProt O14744, whole entry: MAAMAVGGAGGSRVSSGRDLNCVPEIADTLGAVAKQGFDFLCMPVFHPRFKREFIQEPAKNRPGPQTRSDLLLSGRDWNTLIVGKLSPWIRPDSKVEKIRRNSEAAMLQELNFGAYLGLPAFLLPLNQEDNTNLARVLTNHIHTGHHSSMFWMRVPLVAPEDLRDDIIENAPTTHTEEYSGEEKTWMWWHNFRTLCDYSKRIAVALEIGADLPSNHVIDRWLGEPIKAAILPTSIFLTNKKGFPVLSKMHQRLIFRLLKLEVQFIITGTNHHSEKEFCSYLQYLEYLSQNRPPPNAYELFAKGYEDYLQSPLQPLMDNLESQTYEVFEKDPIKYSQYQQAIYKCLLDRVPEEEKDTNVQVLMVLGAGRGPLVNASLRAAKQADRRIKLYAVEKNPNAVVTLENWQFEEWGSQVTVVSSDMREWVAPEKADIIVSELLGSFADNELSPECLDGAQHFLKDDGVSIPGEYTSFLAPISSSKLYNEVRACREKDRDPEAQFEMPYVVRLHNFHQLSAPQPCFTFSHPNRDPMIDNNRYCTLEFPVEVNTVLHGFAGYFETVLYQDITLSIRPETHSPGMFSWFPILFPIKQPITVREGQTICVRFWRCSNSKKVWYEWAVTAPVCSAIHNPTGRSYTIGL
# UniProt O15118: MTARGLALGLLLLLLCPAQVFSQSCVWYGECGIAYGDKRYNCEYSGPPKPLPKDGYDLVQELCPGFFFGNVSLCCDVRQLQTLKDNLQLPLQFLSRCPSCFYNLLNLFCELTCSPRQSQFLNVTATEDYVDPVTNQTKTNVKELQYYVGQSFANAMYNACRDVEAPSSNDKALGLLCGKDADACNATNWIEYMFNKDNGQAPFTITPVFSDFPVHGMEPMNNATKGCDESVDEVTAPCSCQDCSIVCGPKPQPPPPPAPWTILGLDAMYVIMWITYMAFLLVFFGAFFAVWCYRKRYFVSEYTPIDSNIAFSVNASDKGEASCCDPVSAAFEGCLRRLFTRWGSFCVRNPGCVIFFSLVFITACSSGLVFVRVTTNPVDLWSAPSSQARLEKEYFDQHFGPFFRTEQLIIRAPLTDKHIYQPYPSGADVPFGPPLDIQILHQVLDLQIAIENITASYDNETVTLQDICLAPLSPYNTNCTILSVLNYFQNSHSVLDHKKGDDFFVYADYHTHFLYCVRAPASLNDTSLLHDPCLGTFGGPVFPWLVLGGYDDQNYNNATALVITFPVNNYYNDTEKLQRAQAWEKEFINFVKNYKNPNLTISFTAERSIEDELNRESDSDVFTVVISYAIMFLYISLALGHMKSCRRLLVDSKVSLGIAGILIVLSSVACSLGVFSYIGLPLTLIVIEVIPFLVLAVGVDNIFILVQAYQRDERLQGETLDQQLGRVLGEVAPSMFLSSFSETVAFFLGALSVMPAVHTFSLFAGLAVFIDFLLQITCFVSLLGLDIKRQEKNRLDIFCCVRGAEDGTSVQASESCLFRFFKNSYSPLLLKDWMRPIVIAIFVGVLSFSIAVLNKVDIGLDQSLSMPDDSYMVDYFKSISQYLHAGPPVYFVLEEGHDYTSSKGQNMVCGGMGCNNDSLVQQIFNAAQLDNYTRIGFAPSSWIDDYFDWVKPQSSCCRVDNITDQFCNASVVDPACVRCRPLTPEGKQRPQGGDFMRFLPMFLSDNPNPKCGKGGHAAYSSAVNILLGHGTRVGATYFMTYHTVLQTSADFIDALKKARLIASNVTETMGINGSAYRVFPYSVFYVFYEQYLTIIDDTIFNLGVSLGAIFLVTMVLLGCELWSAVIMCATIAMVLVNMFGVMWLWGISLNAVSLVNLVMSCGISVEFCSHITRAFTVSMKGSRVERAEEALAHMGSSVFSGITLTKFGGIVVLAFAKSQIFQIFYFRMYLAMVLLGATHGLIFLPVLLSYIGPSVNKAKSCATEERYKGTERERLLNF
# UniProt O00186: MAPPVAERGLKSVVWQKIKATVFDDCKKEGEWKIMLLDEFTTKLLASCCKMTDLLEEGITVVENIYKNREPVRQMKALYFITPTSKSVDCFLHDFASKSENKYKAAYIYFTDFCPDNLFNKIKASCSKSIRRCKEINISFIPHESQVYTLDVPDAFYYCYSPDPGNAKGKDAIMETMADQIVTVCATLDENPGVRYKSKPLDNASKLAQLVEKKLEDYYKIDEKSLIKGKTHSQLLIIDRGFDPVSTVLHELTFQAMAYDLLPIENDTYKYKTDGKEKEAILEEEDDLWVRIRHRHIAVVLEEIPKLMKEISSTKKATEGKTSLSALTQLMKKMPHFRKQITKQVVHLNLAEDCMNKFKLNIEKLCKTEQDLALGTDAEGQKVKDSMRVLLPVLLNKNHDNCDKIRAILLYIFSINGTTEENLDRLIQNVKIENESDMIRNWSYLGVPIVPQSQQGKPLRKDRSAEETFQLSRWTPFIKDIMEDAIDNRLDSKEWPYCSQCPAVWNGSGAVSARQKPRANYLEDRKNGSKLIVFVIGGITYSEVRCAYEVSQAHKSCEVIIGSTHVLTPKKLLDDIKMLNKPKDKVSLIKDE
# UniProt O15126: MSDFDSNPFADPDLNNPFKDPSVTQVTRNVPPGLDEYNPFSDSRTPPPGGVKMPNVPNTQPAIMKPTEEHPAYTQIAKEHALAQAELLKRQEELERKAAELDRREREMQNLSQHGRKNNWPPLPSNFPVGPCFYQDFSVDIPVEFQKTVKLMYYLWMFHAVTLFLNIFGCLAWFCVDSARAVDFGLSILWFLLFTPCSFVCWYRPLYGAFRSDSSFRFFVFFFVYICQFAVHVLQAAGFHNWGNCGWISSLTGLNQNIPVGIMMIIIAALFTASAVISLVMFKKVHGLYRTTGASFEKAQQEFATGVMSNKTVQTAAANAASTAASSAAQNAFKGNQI
# UniProt O00329: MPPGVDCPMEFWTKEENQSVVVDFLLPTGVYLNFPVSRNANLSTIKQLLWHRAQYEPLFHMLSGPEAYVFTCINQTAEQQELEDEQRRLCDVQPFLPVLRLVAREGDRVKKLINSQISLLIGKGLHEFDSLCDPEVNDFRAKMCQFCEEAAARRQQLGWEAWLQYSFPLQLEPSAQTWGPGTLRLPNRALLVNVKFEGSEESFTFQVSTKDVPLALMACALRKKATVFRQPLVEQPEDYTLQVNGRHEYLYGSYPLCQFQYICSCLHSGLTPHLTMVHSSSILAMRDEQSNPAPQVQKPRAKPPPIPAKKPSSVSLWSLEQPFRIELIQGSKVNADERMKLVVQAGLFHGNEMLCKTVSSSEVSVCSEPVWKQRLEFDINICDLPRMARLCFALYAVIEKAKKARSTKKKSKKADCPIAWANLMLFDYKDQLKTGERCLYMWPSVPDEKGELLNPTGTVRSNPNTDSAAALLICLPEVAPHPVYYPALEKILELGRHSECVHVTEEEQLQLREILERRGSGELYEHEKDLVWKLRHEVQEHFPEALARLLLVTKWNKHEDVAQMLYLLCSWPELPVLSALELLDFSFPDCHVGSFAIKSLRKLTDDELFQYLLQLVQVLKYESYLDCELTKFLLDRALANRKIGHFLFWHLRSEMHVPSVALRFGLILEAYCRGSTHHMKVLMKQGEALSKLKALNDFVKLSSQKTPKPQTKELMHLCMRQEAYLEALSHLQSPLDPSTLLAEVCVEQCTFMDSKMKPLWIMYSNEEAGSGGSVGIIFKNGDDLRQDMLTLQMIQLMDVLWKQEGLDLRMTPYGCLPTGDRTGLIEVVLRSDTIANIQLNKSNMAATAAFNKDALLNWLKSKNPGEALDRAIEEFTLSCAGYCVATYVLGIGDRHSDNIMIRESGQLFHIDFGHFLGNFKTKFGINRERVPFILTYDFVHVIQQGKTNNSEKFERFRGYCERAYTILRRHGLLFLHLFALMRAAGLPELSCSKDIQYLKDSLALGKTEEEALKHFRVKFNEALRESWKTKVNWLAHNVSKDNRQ
# ± gives the standard deviation of the averaged measurements. This is a selection; strong and weak results do not stand in their true shares.
# Compound: Nc1ncnc2c1ncn2[C@@H]1O[C@H](COP(=O)(O)OP(=O)(O)NP(=O)(O)O)[C@@H](O)[C@H]1O [adenylyl imidodiphosphate]
# Test: NP40-soluble protein abundance relative to vehicle (solubility fold change) (ratio); higher = more soluble protein in presence of AMP-PNP
# Summary of the method: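 Jurkat crude lysate prepared with a Dounce homogeniser was treated at eight concentrations spanning 0.1 to 10 mM, 10 min at room temperature then 3 min at 37 °C. Solubilisation with 0.8% NP40 and benzonase and ultracentrifugation preceded TMT labelling of the supernatant for LC-MS/MS. Fold change against the detergent-processed vehicle was determined per replicate from vsn-normalised intensities, across three independent experiments.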
Target,NP40-soluble protein abundance (concentration: 1mM),NP40-soluble protein abundance (concentration: 2mM),NP40-soluble protein abundance (concentration: 4mM),NP40-soluble protein abundance (concentration: 6mM),NP40-soluble protein abundance (concentration: 8mM),NP40-soluble protein abundance (concentration: 10mM)
UniProt O00560 and related entries,0.978 ± 0.028,0.986 ± 0.017,1.04 ± 0.048,1.02 ± 0.028,1.04 ± 0.077,1.04 ± 0.069
UniProt O43617 and related entries,0.906 ± 0.038,0.87 ± 0.045,0.93 ± 0.012,0.894 ± 0.041,0.921 ± 0.046,0.854 ± 0.078
SPTLC2 (UniProt O15270),0.978 ± 0.012,0.929 ± 0.098,0.987 ± 0.031,0.999 ± 0.042,1 ± 0.014,0.951 ± 0.019
SLC16A3 (UniProt O15427),1.0247 ± 0.001,0.988 ± 0.024,0.956 ± 0.038,1 ± 0.01,0.97607 ± 0.00082,0.945 ± 0.016
BACH1 (UniProt O14867),0.996 ± 0.051,1 ± 0.027,0.9979 ± 0.0049,1 ± 0.044,0.996 ± 0.043,1.02 ± 0.021
SLC35A4 (UniProt L0R6Q1),0.926 ± 0.013,0.981 ± 0.037,0.909 ± 0.048,0.992 ± 0.045,0.918 ± 0.033,0.908 ± 0.042
K7ERW4 and related entries (UniProt Q6AI12),0.982 ± 0.051,0.986 ± 0.018,0.996 ± 0.02,0.9797 ± 0.0069,0.978 ± 0.027,0.9742 ± 0.0063
YKT6 (UniProt O15498),0.9793 ± 0.007,0.968 ± 0.03,0.905 ± 0.045,0.933 ± 0.02,0.912 ± 0.03,0.908 ± 0.06
K7ERP1 and related entries (UniProt Q9GZN7),0.963 ± 0.019,0.9762 ± 0.0061,0.9548 ± 0.0065,0.977 ± 0.027,0.961 ± 0.07,0.956 ± 0.032
K7EPJ5 and related entries (UniProt O60291),0.971 ± 0.051,0.984 ± 0.038,0.968 ± 0.037,1.01 ± 0.038,1.01 ± 0.044,0.993 ± 0.029
PSMD11 (UniProt O00231),0.925 ± 0.025,0.891 ± 0.045,0.881 ± 0.048,0.866 ± 0.092,0.867 ± 0.084,0.845 ± 0.087
KPNA4 (UniProt O00629),1.07 ± 0.029,1.074 ± 0.0097,1.07 ± 0.016,1.03 ± 0.047,1.05 ± 0.051,1.05 ± 0.037
K7EK07 and related entries (UniProt P84243+K7EK07),0.97 ± 0.11,1.01 ± 0.094,1.01 ± 0.084,1.08 ± 0.13,1.09 ± 0.15,1.16 ± 0.1
M0R0Z3 and related entries (UniProt P35269),1.03 ± 0.028,1.11 ± 0.048,1.04 ± 0.041,1.06 ± 0.018,1.02 ± 0.017,1.09 ± 0.06
PRMT5 (UniProt O14744),0.943 ± 0.022,0.875 ± 0.11,0.903 ± 0.042,0.878 ± 0.048,0.904 ± 0.055,0.858 ± 0.075
VWA5A (UniProt O00534),0.987 ± 0.021,0.99 ± 0.013,1.01 ± 0.029,0.9811 ± 0.0053,0.9823 ± 0.0079,0.999 ± 0.03
NPC1 (UniProt O15118),1.01 ± 0.013,1.04 ± 0.086,1.017 ± 0.0094,0.992 ± 0.038,1.014 ± 0.0045,0.9825 ± 0.0087
M0QYM7 and related entries (UniProt P04350),1.03 ± 0.015,0.9836 ± 0.0043,1.02 ± 0.027,1.06 ± 0.024,1.03 ± 0.033,1.05 ± 0.023
UniProt O43524 and related entries,0.988 ± 0.055,1.021 ± 0.0014,0.965 ± 0.011,0.9882 ± 0.0051,0.9824 ± 0.0098,0.9866 ± 0.0047
UniProt O00754 and related entries,0.951 ± 0.047,0.945 ± 0.036,0.97 ± 0.027,0.984 ± 0.053,0.981 ± 0.048,0.981 ± 0.042
M0R3D4 and related entries (UniProt Q9UI14),0.961 ± 0.048,0.957 ± 0.042,0.946 ± 0.038,1.07 ± 0.05,1.07 ± 0.037,1.05 ± 0.021
IGF2BP3 (UniProt O00425),1.02 ± 0.014,0.985 ± 0.018,0.975 ± 0.031,0.934 ± 0.041,0.909 ± 0.054,0.889 ± 0.065
STXBP3 (UniProt O00186),1.03 ± 0.014,1.01 ± 0.04,1.01 ± 0.041,1.02 ± 0.024,1.01 ± 0.034,1.02 ± 0.052
ARPC1B (UniProt O15143),0.985 ± 0.027,0.96 ± 0.01,0.964 ± 0.014,0.988 ± 0.022,0.974 ± 0.026,0.951 ± 0.029
NDUFS4 (UniProt O43181),0.96 ± 0.013,0.958 ± 0.023,0.935 ± 0.044,0.922 ± 0.07,0.923 ± 0.11,0.915 ± 0.081
SCAMP1 (UniProt O15126),1.03 ± 0.043,1.09 ± 0.044,1.03 ± 0.059,1.01 ± 0.031,0.992 ± 0.029,1.01 ± 0.073
K7ES11 and related entries (UniProt Q9C0C9),0.987 ± 0.031,1 ± 0.026,0.992 ± 0.014,1.01 ± 0.023,0.985 ± 0.012,1 ± 0.027
POLR3A (UniProt O14802),0.957 ± 0.047,0.9 ± 0.14,0.963 ± 0.055,0.915 ± 0.066,0.949 ± 0.068,0.939 ± 0.11
DYNC1LI2 (UniProt O43237),1.02 ± 0.057,1.046 ± 0.0086,1.01 ± 0.055,0.993 ± 0.11,0.963 ± 0.066,0.982 ± 0.076
PIK3CD (UniProt O00329),0.979 ± 0.039,0.933 ± 0.042,0.952 ± 0.031,0.935 ± 0.019,0.966 ± 0.012,0.914 ± 0.03

# In another format: entries from further up
Target | NP40-soluble protein abundance (concentration: 1mM) | NP40-soluble protein abundance (concentration: 2mM) | NP40-soluble protein abundance (concentration: 4mM) | NP40-soluble protein abundance (concentration: 6mM) | NP40-soluble protein abundance (concentration: 8mM) | NP40-soluble protein abundance (concentration: 10mM)
M0QYM7 and related entries (UniProt P04350) | 1.03 ± 0.015 | 0.9836 ± 0.0043 | 1.02 ± 0.027 | 1.06 ± 0.024 | 1.03 ± 0.033 | 1.05 ± 0.023
UniProt O43524 and related entries | 0.988 ± 0.055 | 1.021 ± 0.0014 | 0.965 ± 0.011 | 0.9882 ± 0.0051 | 0.9824 ± 0.0098 | 0.9866 ± 0.0047
